± gives the standard deviation of the averaged measurements. Most values lie at the level of the controls, where differences are scatter.
What was measured:
Assay in all cases: level (log10 ratio to DMSO vehicle control); higher = higher biomarker level / cell amount than vehicle control
[1] = compound: CC(C)(C)C(=O)CC(=O)C(F)(F)C(F)(F)C(F)(F)F [(Heptafluorobutanoyl)pivaloylmethane]; settings: 2200 nM; in DMSO
Procedure: (§1)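 BioMAP Diversity Plus panel of 12 human primary cell co-culture systems (3C, 4H, LPS, SAg, BT, BF4T, BE3C, CASM3C, HDF3CGF, KF3CT, MyoF, Mphg). Compounds were added 1 h before stimulation and left for 24 h (MyoF 48 h; BT 72 h for soluble read-outs or 6 d for IgG). Biomarkers were read by ELISA, cytotoxicity by SRB, PBMC viability and proliferation by Alamar Blue. Each well value was divided by the mean of 8 DMSO control wells on the same plate and log10 transformed; duplicate blinded samples were tested at 4 concentrations.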

[2] = compound: O=C(O)C(F)(F)C(F)(F)C(F)(F)C(F)(F)C(=O)O [Octafluoroadipic acid]; settings: 2200 nM; in DMSO
Procedure: as §1

[3] = compound: Cc1ccc(S(=O)(=O)OCC(F)(F)C(F)(F)C(F)(F)C(F)(F)C(F)(F)C(F)F)cc1 [1H,1H,7H-Perfluoroheptyl 4-methylbenzenesulfonate]; settings: 2200 nM; in DMSO
Procedure: as §1

[4] = compound: O=C(O)C(F)(F)C(F)(F)C(F)(F)C(F)(F)C(F)(F)C(F)(F)F [Perfluoroheptanoic acid]; settings: in DMSO
Procedure: as §1

[5] = compound: CN(C(=O)C(F)(F)C(F)(F)C(F)(F)F)[Si](C)(C)C [N-Methyl-N-trimethylsilylheptafluorobutyramide]; settings: 2200 nM; in DMSO
Procedure: as §1

[6] = compound: OCCC(F)(F)C(F)(F)C(F)(F)C(F)(F)C(F)(F)C(F)(F)F [6:2 Fluorotelomer alcohol]; settings: 2200 nM; in DMSO
Procedure: as §1

[7] = compound: O=C(O)C(F)(F)C(F)(F)C(F)(F)C(F)(F)C(F)(F)C(F)(F)C(F)(F)C(F)(F)C(F)(F)C(F)F [11-H-Perfluoroundecanoic acid]; settings: 2200 nM; in DMSO
Procedure: as §1

[8] = compound: O=S(=O)(O)CCC(F)(F)C(F)(F)C(F)(F)C(F)(F)C(F)(F)C(F)(F)C(F)(F)C(F)(F)F [8:2 Fluorotelomer sulfonic acid]; settings: in DMSO
Procedure: as §1

[9] = compound: NC(=O)C(F)(F)C(F)(F)C(F)(F)F [Heptafluorobutyramide]; settings: 2200 nM; in DMSO
Procedure: as §1

[10] = compound: CCCCCCCCC(F)(F)C(F)(F)C(F)(F)C(F)(F)C(F)(F)C(F)(F)F [1-(Perfluorohexyl)octane]; settings: in DMSO
Procedure: as §1

[11] = compound: O=C(O)C(F)(F)C(F)(F)C(F)(F)OC(F)(F)F [Perfluoro(4-methoxybutanoic) acid]; settings: 2200 nM; in DMSO
Procedure: as §1

[12] = compound: CCN(CCO)S(=O)(=O)C(F)(F)C(F)(F)C(F)(F)C(F)(F)C(F)(F)C(F)(F)C(F)(F)C(F)(F)F [N-Ethyl-N-(2-hydroxyethyl)perfluorooctanesulfonamide]; settings: in DMSO
Procedure: as §1

[13] = compound: O=C(O)C(F)(F)C(F)(F)C(F)(F)C(F)(F)F [Perfluoropentanoic acid]; settings: in DMSO
Procedure: as §1

[14] = compound: OCC(F)(F)C(F)(F)C(F)(F)F [1H,1H-Heptafluorobutanol]; settings: 2200 nM; in DMSO
Procedure: as §1

[15] = compound: FC(F)(F)C(F)(F)C(F)(F)C(F)(F)C(F)(F)C(F)(F)CC1CO1 [3-(Perfluorohexyl)-1,2-epoxypropane]; settings: 2200 nM; in DMSO
Procedure: as §1

[16] = compound: NCC(F)(F)C(F)(F)C(F)(F)C(F)(F)C(F)(F)C(F)(F)C(F)(F)F [1H,1H-Perfluorooctylamine]; settings: 2200 nM; in DMSO
Procedure: as §1

Test System	level (log10) [1]	level (log10) [2]	level (log10) [3]	level (log10) ([4]; 2200 nM)	level (log10) ([4]; 6700 nM)	level (log10) ([4]; 20000 nM)	level (log10) ([4]; 60000 nM)	level (log10) [5]	level (log10) [6]	level (log10) [7]	level (log10) ([8]; 2200 nM)	level (log10) ([8]; 6700 nM)	level (log10) ([8]; 20000 nM)	level (log10) ([8]; 60000 nM)	level (log10) [9]	level (log10) ([10]; 740 nM)	level (log10) ([10]; 2200 nM)	level (log10) [11]	level (log10) ([12]; 2200 nM)	level (log10) ([12]; 6700 nM)	level (log10) ([12]; 20000 nM)	level (log10) ([13]; 2200 nM)	level (log10) ([13]; 6700 nM)	level (log10) ([13]; 20000 nM)	level (log10) ([13]; 60000 nM)	level (log10) [14]	level (log10) [15]	level (log10) [16]
3C:CCL2/MCP-1	-0.0015 ± 0.025	-0.001 ± 0.0071	0.0205 ± 0.021	0.0335 ± 0.0064	0.0015 ± 0.015	-0.009 ± 0.013	0.032 ± 0.045	0.0065 ± 0.028	0.0115 ± 0.066	0.007 ± 0.0099	0.0045 ± 0.025	-0.01 ± 0.0085	-0.0335 ± 0.021	-0.0185 ± 0.005	0.0105 ± 0.035	0.013 ± 0.027	0.0085 ± 0.00071	0.016 ± 0.047	-0.0055 ± 0.052	-0.032 ± 0.016	-0.145 ± 0.032	-0.0025 ± 0.023	-0.0105 ± 0.00071	0.0005 ± 0.0021	0.0215 ± 0.019	0.005 ± 0.0085	0.027 ± 0.028	0.007 ± 0.017
3C:CD54/ICAM-1	0.0115 ± 0.033	-0.0165 ± 0.018	0.009 ± 0.0057	0.012 ± 0.0028	0.0025 ± 0.0035	-0.0095 ± 0.0092	0.008 ± 0.023	-0.012 ± 0.0028	-0.009 ± 0.014	0.0005 ± 0.011	-0.013 ± 0.0057	-0.008 ± 0.0099	0.003 ± 0.013	0.034 ± 0.0042	-0.0275 ± 0.022	0.003 ± 0.014	0.0195 ± 0.005	-0.026 ± 0.011	-0.004 ± 0.03	0.03 ± 0.013	0.075 ± 0.065	-0.0155 ± 0.012	-0.0145 ± 0.03	-0.028 ± 0.021	-0.0075 ± 0.022	0.011 ± 0.021	0.0115 ± 0.013	-0.0015 ± 0.033
3C:CD62E/E-Selectin	0.002 ± 0.02	-0.0075 ± 0.023	-0.0035 ± 0.0078	0.0345 ± 0.0078	0.007 ± 0.0042	0.0125 ± 0.0078	0.0185 ± 0.00071	-0.018 ± 0.031	-0.021 ± 0.062	-0.0065 ± 0.013	0.008 ± 0.0042	0.013 ± 0.025	0.0385 ± 0.0021	0.0715 ± 0.0078	-0.005 ± 0.057	-0.011 ± 0.0014	-0.019 ± 0.0085	-0.008 ± 0.03	0.0235 ± 0.016	0.0685 ± 0.012	0.068 ± 0.0057	-0.0065 ± 0.0092	-0.0085 ± 0.0035	0.0005 ± 0.0064	0.0175 ± 0.026	0.0135 ± 0.023	-0.0055 ± 0.0035	0.0075 ± 0.054
3C:CD87/uPAR	-0.006 ± 0.027	-0.01 ± 0.016	-0.0125 ± 0.00071	0.033 ± 0.023	0.0015 ± 0.0021	-0.0115 ± 0.026	0.0045 ± 0.013	-0.0135 ± 0.00071	-0.0305 ± 0.05	-0.001 ± 0.013	0.01 ± 0.023	0.0195 ± 0.016	-0.001 ± 0.058	-0.003 ± 0.03	-0.0265 ± 0.043	-0.0115 ± 0.0078	0.0085 ± 0.028	-0.0225 ± 0.054	-0.0025 ± 0.013	-0.047 ± 0.027	-0.124 ± 0.046	0.0015 ± 0.013	-0.003 ± 0.021	-0.0045 ± 0.021	-0.0105 ± 0.015	-0.007 ± 0.011	0.0285 ± 0.022	-0.0105 ± 0.023
3C:CD106/VCAM-1	-0.004 ± 0.0099	-0.009 ± 0.02	-0.03 ± 0.02	0.0075 ± 0.023	0.0165 ± 0.018	-0.02 ± 0.0042	-0.003 ± 0.014	-0.026 ± 0.0028	0.008 ± 0.0014	-0.008 ± 0.014	0.006 ± 0.035	0.002 ± 0.0014	0.009 ± 0.0028	0.019 ± 0.016	-0.007 ± 0.014	-0.01 ± 0.0042	-0.0065 ± 0.013	-0.02 ± 0.023	-0.005 ± 0.021	0.0005 ± 0.005	0.005 ± 0.0085	-0.0065 ± 0.011	0.002 ± 0.023	-0.0055 ± 0.021	0.0235 ± 0.015	0.0115 ± 0.0035	-0.016 ± 0.02	-0.001 ± 0.0099
3C:CD141/Thrombomodulin	-0.011 ± 0.052	0.0065 ± 0.0078	0.009 ± 0.023	0.0045 ± 0.00071	0.0185 ± 0.0035	0.0035 ± 0.00071	0.0205 ± 0.0021	-0.0015 ± 0.022	-0.027 ± 0.028	0.001 ± 0.014	0.002 ± 0.0099	-0.003 ± 0.024	-0.011 ± 0.034	0.0285 ± 0.037	0.0015 ± 0.1	-0.0095 ± 0.042	0.0045 ± 0.026	0.0005 ± 0.07	0.046 ± 0.0099	0.046 ± 0.03	0.261 ± 0.14	0.0215 ± 0.023	0.024 ± 0.021	0.0345 ± 0.005	0.0685 ± 0.042	-0.0065 ± 0.019	-0.019 ± 0.023	-0.017 ± 0.017
3C:CD142/Tissue Factor	0.019 ± 0.0057	0.0435 ± 0.012	0.012 ± 0.024	-0.0025 ± 0.005	-0.0065 ± 0.037	-0.004 ± 0.027	0.0285 ± 0.039	0 ± 0.047	0.023 ± 0.044	-0.0185 ± 0.021	-0.0285 ± 0.025	-0.018 ± 0.065	0.001 ± 0.052	-0.0295 ± 0.046	-0.0165 ± 0.073	0.016 ± 0.024	0.003 ± 0.018	0.015 ± 0.065	0.017 ± 0.0028	0.0825 ± 0.036	0.235 ± 0.059	0.0045 ± 0.0078	0.0225 ± 0.011	0.018 ± 0.027	0.0395 ± 0.056	-0.0015 ± 0.03	-0.0335 ± 0.0078	-0.0285 ± 0.019
3C:CXCL8/IL-8	-0.0165 ± 0.042	0.0155 ± 0.025	0.018 ± 0.033	0.029 ± 0.016	0.0285 ± 0.04	0.0305 ± 0.056	0.0955 ± 0.088	-0.002 ± 0.018	0.0205 ± 0.052	0.0175 ± 0.0035	0.017 ± 0.076	-0.0005 ± 0.13	0.012 ± 0.057	0.079 ± 0.024	0.021 ± 0.023	0.002 ± 0.033	0.001	0.016 ± 0.04	0.05 ± 0.0014	0.02 ± 0.044	-0.0985 ± 0.1	0.0375 ± 0.049	-0.0065 ± 0.0092	-0.005 ± 0.027	0.03 ± 0.079	0.035 ± 0.0071	0.0035 ± 0.032	0.001 ± 0.042
